In all, about 400,000 compounds went through this assay and about 5,500 (1.4%) were called active. The shares of active, inactive and inconclusive entries below differ from those in the screen. Calls come from the whole dose curve; as a rule, active = well fitted cell-killing curve with a large enough effect; inconclusive = small, poorly fitted or top-dose-only effect, or effect the other way; inactive = flat fitted curve, though single readings scatter. A potency beside an inconclusive call is a rough fit, not a confirmed value.
assay: qHTS assay for MDR1-selective chemotherapeutics: Primary screen using the parental adenocarcinoma cell KB-3-1; details: KB-3-1 viability, CellTiter-Glo ATP luminescence, 72 h; activity change, negative = cytotoxic: at 46.1 µM (top of the series); note: nearly all actives have a fitted effect of over 60% in size
Method in brief: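 Parental KB-3-1 viability, qHTS format: 72 h compound exposure, 37 °C; CellTiter-Glo; media-only wells and DMSO plates as controls; concentration-effect fits on corrected data.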
% is set by controls: 0 for no effect and ±100 for the full control effect; potency is the fitted concentration of half-maximal effect.

Compound | Potency | activity change, negative = cytotoxic
COc1ccc(CCNC(=O)/C=C/c2cc(OC)c(OC)c(OC)c2)cc1OC | inconclusive: 5.17 µM [rising, partial curve] | –
CCc1ccc(-n2nc(C)c3c(C)cc(=O)n(CC(=O)Nc4cc(Cl)ccc4OC)c32)cc1 | – | inactive: 5.86%
CC(C)Cc1ccc(C(C)C(N)=Nc2ccc(O)cc2)cc1 (stereo not drawn) | inconclusive: 23.1 µM [cytotoxic, single point] | –
CC1(C(=O)NCCC(F)(F)F)Cc2c(-c3ccccc3)ccnc2O1 (stereo not drawn) | inconclusive: 29.1 µM [cytotoxic, single point] | –
CC1=NN(Cc2ccccc2)C(=O)C1C(c1ccc(Cl)cc1)C(C#N)C#N (stereo not drawn) | inconclusive: 20.6 µM [cytotoxic, single point] | –
CCN(CC)S(=O)(=O)c1ccc(N2CCCC2)c(NC(=O)Cc2cc(OC)c(OC)c(OC)c2)c1 | – | inactive: 9.89%
Cc1cc(N2CCN(C(C(=O)NC3CCCC3)c3ccc(-c4ccccc4)cc3)CC2)c2ccccc2n1 (stereo not drawn) | inconclusive: 18.4 µM [cytotoxic, single point] | –
CCCC1c2ccc(C)n2CCN1C(=O)Nc1ccccc1Cl (stereo not drawn) | – | inactive: 2.07%
CC(C)(C)OC(=O)N1CCC(c2c(C(=O)N3CCN(c4cccc(Cl)c4)CC3)cnn2-c2cccc(Cl)c2)CC1 | inconclusive: 29.1 µM [cytotoxic, single point] | –
COc1ccccc1NC(=O)COc1ccc(C(=O)NCc2ccccc2)cc1OC | inconclusive: 32.6 µM [cytotoxic, single point] | –
O=C(C(=O)c1cc(Br)ccc1O)c1cc(Br)ccc1O | active: 23.1 µM | –
C=CCNC(=O)c1cc(Cl)cc(Cl)c1 | – | inactive: -1.71%
O=C(N[C@H]1CC[C@H](CCNS(=O)(=O)c2ccc(Cl)cc2)O[C@@H]1CO)c1cccc(F)c1 | inconclusive: 14.6 µM [cytotoxic, partial curve] | –
COC(=O)c1c(NC(=O)CCl)sc(C(=O)N2CCOCC2)c1C | inconclusive: 29.1 µM [cytotoxic, single point] | –
O=C(COc1ccccc1[N+](=O)[O-])Nc1ccc(NC(=O)c2cc3ccccc3o2)cc1 | – | inactive: -3.68%
CN(C(=O)Nc1ccc(Cl)cc1Cl)[C@H]1c2cc(Br)ccc2OC[C@H]1CO | inconclusive: 25.9 µM [cytotoxic, single point] | –
O=C(NCc1ccc(Cl)cc1)c1cc(=O)nc2sc(-c3ccccc3)nn12 | inconclusive: 11.2 µM [cytotoxic, partial curve] | –
N#CC1=C(N)Oc2c(ccc3cccnc23)C1c1ccccc1 (stereo not drawn) | active: 5.17 µM | –
COc1cccc(-c2cc3c(-n4cccc4)ncnc3o2)c1 | inconclusive: 29.1 µM [cytotoxic, single point] | –
O=C(Nc1cccc(Cl)c1)c1nc[nH]c1C(=O)NCCCCNC(=O)c1[nH]cnc1C(=O)Nc1cccc(Cl)c1 | inconclusive: 18.4 µM [rising, partial curve, poor fit] | –
O=C(NCCC1CCCCN1S(=O)(=O)c1ccccc1)C(=O)NC1CC1 (stereo not drawn) | – | inactive: 1.25%
CN(C(=O)CSc1nc2[nH]ncc2c(=O)[nH]1)c1ccccc1 | inconclusive: 2.31 µM [rising, full curve, poor fit] | –
Cc1ccccc1N1CCN(C(=S)c2ccc(-c3cccc([N+](=O)[O-])c3)o2)CC1 | – | inactive: -6.66%
CCC1CN(C(=O)NCc2ccc(F)cc2)c2cc(C)ccc2O1 (stereo not drawn) | inconclusive: 10.3 µM [cytotoxic, partial curve, poor fit] | –
COC(=O)c1cc2sc(Cl)cc2n1Cc1c(C)cc(C)cc1C | – | inactive: -2.8%

Compound | Potency | activity change, negative = cytotoxic
Cc1ccc(NC(=S)/N=C(\N)Nc2nc(C)c3cc(C)ccc3n2)c(C)c1 | – | inactive: 3.41%
CC(C)(C)Nc1c2ccccc2nc2ccccc12 | – | inactive: -2.87%
Cc1ccc(/C=C2\CCC(C3CCCC3)C2=O)cc1 (stereo not drawn) | – | inactive: -3.19%
Cc1ccc(-n2nc3c(c2NC(=O)c2c(-c4ccccc4Cl)noc2C)CS(=O)(=O)C3)c(C)c1 | – | inactive: 2.41%
COC(=O)[C@@]12C[C@@H](CC(=O)N3CCN(C(=O)c4ccco4)CC3)C(=O)N(Cc3cccc4ccccc34)C1=CCC(C)(C)C2 | inconclusive: 18.4 µM [cytotoxic, single point] | –
Cc1nc2c(-c3ccc(F)cc3)cnn2c2c1CCC2 | inconclusive: 25.9 µM [cytotoxic, partial curve] | –
Cc1cc(C)cc(NC(=S)/N=C(\N)Nc2nc(C)c3ccccc3n2)c1 | inconclusive: 18.4 µM [cytotoxic, single point] | –
CCOC(=O)c1c(-c2ccccc2)csc1NC(=O)c1cc(=O)c2ccc(C)cc2o1 | – | inactive: 17.4%
Cc1sc2nc(C(C)C)nc(SCC(=O)N3CCN(C(=O)c4ccco4)CC3)c2c1C | – | inactive: 0%
COCc1[nH]nc2c1C(c1cc(OC)c(O)c(OC)c1)C(C#N)=C(N)O2 (stereo not drawn) | – | inactive: -4.6%
Cc1nc2nncn2c(Nc2ccccc2)c1C | – | inactive: 1.96%
O=c1ccc2cc([N+](=O)[O-])c(CCO)cc2o1 | – | inactive: 22.3%
O=C(O)CCc1ccc(-c2ccccc2)n1CC(=O)O | inconclusive: 29.1 µM [rising, single point] | –
O=C(NC1CCCCC1)C(c1cccnc1)N(C(=O)c1csnn1)c1ccccc1 (stereo not drawn) | – | inactive: -14.2%
CCN1CCN(C(=S)c2ccc(Br)cc2)CC1 | inconclusive: 1.84 µM [cytotoxic, partial curve, poor fit] | –
CCn1c(SCC#N)nc2c(c1=O)C1(CCCC1)Cc1ccccc1-2 | inconclusive: 29.1 µM [cytotoxic, single point] | –
CCc1nc2ccc(C(=O)NCCOc3ccc(OC)cc3)cn2c1N(C)CCCc1ccccc1 | inconclusive: 29.1 µM [cytotoxic, single point] | –
Cc1ccc(NC(=O)C2CCN(S(=O)(=O)c3ccc4[nH]c5c(c4c3)CCCCC5)CC2)cc1 | – | inactive: 0.102%
Cc1cc(Nc2ccccc2)nc(-c2ccccc2O)n1 | – | inactive: -0.344%
CCOC(=O)C1CCN(C(=O)c2ccc(OCC(=O)Nc3cccc(C(F)(F)F)c3)c(OC)c2)CC1 | – | inactive: -24.1%
CC12CCC(C(=O)N(NC(=O)c3ccccc3O)C1=O)C2(C)C (stereo not drawn) | active: 16.4 µM | –
O=C(NCc1cccc(F)c1)C1CCCN(C(=O)N2CCOc3ccccc32)C1 (stereo not drawn) | – | inactive: 11.9%
Cc1ccc(C)c(NC(=O)CCC(=O)N/N=C/c2cc([N+](=O)[O-])ccc2O)c1 | inconclusive: 18.4 µM [cytotoxic, single point] | –
CC(=O)NC(c1cc(F)c2cccnc2c1O)C1CC1 (stereo not drawn) | inconclusive: 20.6 µM [cytotoxic, single point] | –
COc1ccc(NC(=O)COc2ccccc2Cc2ccccc2)cn1 | inconclusive: 29.1 µM [cytotoxic, single point] | –

Compound | Potency | activity change, negative = cytotoxic
Nc1ccc2c(c1)C(=O)c1ccccc1C2=O | inconclusive: 18.4 µM [rising, partial curve, poor fit] | –
Cc1ccc(C)c(NC(=O)C2CCCN(c3nc4ccccc4s3)C2)c1 (stereo not drawn) | – | inactive: 7.02%
CC1CN(C(=O)N2CCC(C(=O)NCc3cccs3)CC2)c2cc(Cl)ccc2O1 (stereo not drawn) | inconclusive: 16.4 µM [cytotoxic, single point] | –
O=C(N/N=C/c1ccc2c(c1)OCO2)c1cc(-c2ccncc2)nc2ccccc12 | active: 5.8 µM | –
CN(C)c1ccc(O)c2c1CC1CC3[C@@H](N(C)C)C(=O)C(C(N)=O)=C(O)[C@]3(O)C(=O)C1=C2O (stereo partly drawn) | – | inactive: 0%
CCn1c(SCc2ccc(C)cc2)nnc1C1CCN(S(=O)(=O)c2ccc(OC)cc2)CC1 | inconclusive: 18.4 µM [cytotoxic, single point] | –
CCOC(=O)COc1c(OC)cc(Cl)cc1C1Nc2ccccc2C(=O)N1c1cccc(C)c1 (stereo not drawn) | – | inactive: 2.72%
COc1ccccc1C1CCN(Cc2cccc(C(=O)N3CCC(O)CC3)c2)CC1 | – | inconclusive: -33.8% [cytotoxic]
O=C1N=C2N(CCN3CCCCC3)c3ccccc3N2/C1=C\c1ccc([N+](=O)[O-])s1 | – | inactive: 4.32%
Cc1cc(S(=O)(=O)ON2C(=O)c3ccccc3C2=O)ccc1F | inconclusive: 25.9 µM [cytotoxic, single point] | –
C=CCNc1ncnc2c1ncn2[C@H]1CN(Cc2ccc(-c3ccccc3)cc2)C[C@@H](CO)O1 | inconclusive: 29.1 µM [cytotoxic, single point] | –
O=C(Cc1ccc(F)cc1)Nc1nnc(-c2ccc(F)cc2)o1 | inconclusive: 14.6 µM [cytotoxic, single point] | –
Cc1cccc(Nc2nc(-c3cccs3)cs2)n1 | – | inactive: -26.1%
O=C(NCCc1ccc(F)cc1)C(=O)NCC(c1cccs1)S(=O)(=O)c1ccc(F)cc1 (stereo not drawn) | – | inactive: 5.25%
COc1ccc(C(O)c2nc(-c3ccoc3)cs2)cc1 (stereo not drawn) | – | inactive: 0%
COc1ccc2nc(N3C(=O)/C(=C/c4ccccc4)NC3=S)sc2c1 | inconclusive: 29.1 µM [cytotoxic, single point] | –
Cc1cccc(C)c1NC(=O)C(c1ccnc2ccccc12)N1CCN(C)CC1 (stereo not drawn) | – | inactive: -1.78%
Oc1c(Br)cc(Cl)cc1C=Nc1ccc(N2CCOCC2)cc1 | inconclusive: 29.1 µM [cytotoxic, single point] | –
CC(=O)COc1ccc2oc(=O)cc(-c3cc4ccccc4o3)c2c1 | – | inactive: -11.6%
COC(=O)c1c(NC(=O)COc2ccc(Cl)cc2)sc2c1CC(C)(C)NC2(C)C | inconclusive: 32.6 µM [cytotoxic, partial curve, poor fit] | –
O=C(Nc1cc(S(=O)(=O)N2CCCCC2)ccc1Oc1ccccc1)C1=COCCO1 | inconclusive: 32.6 µM [cytotoxic, single point] | –
O=C(NCCc1ccco1)C(=O)NCC1CCCN1S(=O)(=O)c1ccccc1 (stereo not drawn) | inconclusive: 29.1 µM [cytotoxic, single point] | –
CCN(CC)S(=O)(=O)c1cc(NS(=O)(=O)c2cc(Cl)ccc2Cl)ccc1C | inconclusive: 18.4 µM [cytotoxic, single point] | –

Complete entries, quoted from the list:
Cc1cccc(Nc2nc(-c3cccs3)cs2)n1 is entered as activity change, negative = cytotoxic: inactive: -26.1%
COc1ccc2nc(N3C(=O)/C(=C/c4ccccc4)NC3=S)sc2c1 is entered as Potency: inconclusive: 29.1 µM [cytotoxic, single point]

Given in markdown: part of the list above.

| Compound | Potency | activity change, negative = cytotoxic |
| --- | --- | --- |
| O=C(Cc1ccc(F)cc1)Nc1nnc(-c2ccc(F)cc2)o1 | inconclusive: 14.6 µM [cytotoxic, single point] | – |
| COc1ccc2nc(N3C(=O)/C(=C/c4ccccc4)NC3=S)sc2c1 | inconclusive: 29.1 µM [cytotoxic, single point] | – |
| COC(=O)c1c(NC(=O)COc2ccc(Cl)cc2)sc2c1CC(C)(C)NC2(C)C | inconclusive: 32.6 µM [cytotoxic, partial curve, poor fit] | – |
